This is an account of results in patent US20250066478A1.

The experiment has as its target anti-CD3 clone UCHT1. Kind of experiment: graph of FIG. 3A; method not named in the legend (Octet per paragraph 88). In general terms: BLI is a label-free optical method that tracks binding on a fibre tip over time.

These are yes or no findings as the source states them, for the method shown. Some results given as binding are weak or reduced against the parent protein; the word gives no strength.

With CPQYPGSEILWQKWGNKKVCYPRGSKPEDAN [engineered epitope 1], the binding result is “binds”.
